Test results from the supplement of paper PMC8728848.
Some of the results follow.

Key:
Test in all cases: glycan array binding signal (z-score within array); higher = stronger binding
Details in all cases: glycan notation: IUPAC condensed, linker removed
[1] = target: Fuc(a1-2)Gal(b1-4)GlcNAc(b1-3)Gal(b1-4)GlcNAc(b1-2)Man(a1-3)[Fuc(a1-2)Gal(b1-4)GlcNAc(b1-3)Gal(b1-4)GlcNAc(b1-2)Man(a1-6)]Man(b1-4)GlcNAc(b1-4)GlcNAc
Method in brief: (§1)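 Glycan array data came from 3228 arrays in the Consortium for Functional Glycomics database, and only arrays with an available protein sequence were kept. Glycan names were put into IUPAC-condensed notation, and columns mapping to the same glycan were averaged. The binding signal is a within-array Z-score, averaged across arrays of one protein sequence run at different concentrations or buffers and across linkers. A negative Z-score can be read as non-binding.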

[2] = target: Fuc(a1-2)Gal(b1-4)GlcNAc(b1-3)Gal(b1-4)GlcNAc(b1-3)Gal(b1-4)GlcNAc
Method in brief: as §1

[3] = target: Fuc(a1-2)Gal(b1-4)GlcNAc(b1-3)GalNAc
Method in brief: as §1

[4] = target: Fuc(a1-2)Gal(b1-4)GlcNAc(b1-3)[Fuc(a1-2)Gal(b1-4)GlcNAc(b1-6)]GalNAc
Method in brief: as §1

[5] = target: Fuc(a1-2)Gal(b1-4)GlcNAc(b1-3)[Fuc(a1-3)[Gal(b1-4)]GlcNAc(b1-6)]Gal(b1-4)Glc
Method in brief: as §1

[6] = target: Fuc(a1-2)Gal(b1-4)GlcNAc(b1-6)GalNAc
Method in brief: as §1

[7] = target: Fuc(a1-2)Gal(b1-4)GlcNAc6S
Method in brief: as §1

[8] = target: Fuc(a1-2)Gal(b1-4)[Fuc(a1-3)]GlcNAc
Method in brief: as §1

[9] = target: Fuc(a1-2)Gal(b1-4)[Fuc(a1-3)]GlcNAc(b1-2)Man(a1-3)[Fuc(a1-2)Gal(b1-4)[Fuc(a1-3)]GlcNAc(b1-2)Man(a1-6)]Man(b1-4)GlcNAc(b1-4)[Fuc(a1-6)]GlcNAc
Method in brief: as §1

[10] = target: Fuc(a1-2)Gal(b1-4)[Fuc(a1-3)]GlcNAc(b1-2)[Fuc(a1-2)Gal(b1-4)[Fuc(a1-3)]GlcNAc(b1-4)]Man(a1-3)[Fuc(a1-2)Gal(b1-4)[Fuc(a1-3)]GlcNAc(b1-2)Man(a1-6)]Man(b1-4)GlcNAc(b1-4)GlcNAc
Method in brief: as §1

[11] = target: Fuc(a1-2)Gal(b1-4)[Fuc(a1-3)]GlcNAc(b1-3)Gal(b1-4)[Fuc(a1-3)]GlcNAc
Method in brief: as §1

[12] = target: Fuc(a1-2)Gal(b1-4)[Fuc(a1-3)]GlcNAc(b1-3)Gal(b1-4)[Fuc(a1-3)]GlcNAc(b1-3)Gal(b1-4)[Fuc(a1-3)]GlcNAc
Method in brief: as §1

[13] = target: Fuc(a1-2)Gal(b1-4)[Fuc(a1-3)]GlcNAc(b1-3)GalNAc
Method in brief: as §1

[14] = target: Fuc(a1-2)Gal(b1-4)[Fuc(a1-3)]GlcNAc(b1-3)[Neu5Ac(a2-6)Gal(b1-4)GlcNAc(b1-6)]Gal(b1-4)Glc
Method in brief: as §1

[15] = target: Fuc(a1-2)Gal3S(b1-4)GlcNAc
Method in brief: as §1

[16] = target: Fuc(a1-2)Gal6S(b1-3)GlcNAc
Method in brief: as §1

[17] = target: Fuc(a1-2)Gal6S(b1-3)GlcNAc6S
Method in brief: as §1

Fuc(a1-2)Gal6S(b1-4)Glc = target: Fuc(a1-2)Gal6S(b1-4)Glc
Method in brief: as §1

[18] = target: Fuc(a1-2)Gal6S(b1-4)Glc6S
Method in brief: as §1

Fuc(a1-2)[Gal(a1-3)]Gal = target: Fuc(a1-2)[Gal(a1-3)]Gal
Method in brief: as §1

[19] = target: Fuc(a1-2)[Gal(a1-3)]Gal(b1-3)GalNAc
Method in brief: as §1

[20] = target: Fuc(a1-2)[Gal(a1-3)]Gal(b1-3)GalNAc(b1-3)Gal(a1-4)Gal(b1-4)Glc
Method in brief: as §1

[21] = target: Fuc(a1-2)[Gal(a1-3)]Gal(b1-3)GlcNAc
Method in brief: as §1

[22] = target: Fuc(a1-2)[Gal(a1-3)]Gal(b1-3)GlcNAc(b1-2)Man(a1-3)[Fuc(a1-2)[Gal(a1-3)]Gal(b1-3)GlcNAc(b1-2)Man(a1-6)]Man(b1-4)GlcNAc(b1-4)GlcNAc
Method in brief: as §1

[23] = target: Fuc(a1-2)[Gal(a1-3)]Gal(b1-3)GlcNAc(b1-2)Man(a1-3)[Fuc(a1-2)[Gal(a1-3)]Gal(b1-3)GlcNAc(b1-2)Man(a1-6)]Man(b1-4)GlcNAc(b1-4)[Fuc(a1-6)]GlcNAc
Method in brief: as §1

[24] = target: Fuc(a1-2)[Gal(a1-3)]Gal(b1-3)GlcNAc(b1-3)GalNAc
Method in brief: as §1

[25] = target: Fuc(a1-2)[Gal(a1-3)]Gal(b1-3)GlcNAc(b1-6)GalNAc
Method in brief: as §1

[26] = target: Fuc(a1-2)[Gal(a1-3)]Gal(b1-4)Glc
Method in brief: as §1

[27] = target: Fuc(a1-2)[Gal(a1-3)]Gal(b1-4)GlcNAc
Method in brief: as §1

[28] = target: Fuc(a1-2)[Gal(a1-3)]Gal(b1-4)GlcNAc(b1-2)Man
Method in brief: as §1

B1: BIp1-His (Cryptococcus neoformans) (protein)
chain: MFTKIFVALFAATAVLSAPVESAEKRITHTGRATFYSPSVGIGACGWQNTDEELVVALNAPQYALNADHNCGQSVRITNEQNGNQEIAKVVDLCPGCNDGDLDMSPALFGALNNNDFDQGVFPISWNFLPRDDTSSSN
- glycan array binding signal (z-score) [1]: 1.43
- glycan array binding signal (z-score) [2]: 0.398
- glycan array binding signal (z-score) [3]: 0.809
- glycan array binding signal (z-score) [4]: 0.738
- glycan array binding signal (z-score) [5]: 0.792
- glycan array binding signal (z-score) [6]: -0.477
- glycan array binding signal (z-score) [7]: 0.204
- glycan array binding signal (z-score) [8]: -0.388
- glycan array binding signal (z-score) [9]: 0.101
- glycan array binding signal (z-score) [10]: 0.32
- glycan array binding signal (z-score) [11]: 0.314
- glycan array binding signal (z-score) [12]: -0.224
- glycan array binding signal (z-score) [13]: 0.112
- glycan array binding signal (z-score) [14]: -0.389
- glycan array binding signal (z-score) [15]: -0.089
- glycan array binding signal (z-score) [16]: -0.555
- glycan array binding signal (z-score) [17]: -0.124
- glycan array binding signal (z-score) (Fuc(a1-2)Gal6S(b1-4)Glc): 1.11
- glycan array binding signal (z-score) [18]: -0.846
- glycan array binding signal (z-score) (Fuc(a1-2)[Gal(a1-3)]Gal): -0.04
- glycan array binding signal (z-score) [19]: -0.496
- glycan array binding signal (z-score) [20]: -0.651
- glycan array binding signal (z-score) [21]: -0.182
- glycan array binding signal (z-score) [22]: 0.152
- glycan array binding signal (z-score) [23]: 0.135
- glycan array binding signal (z-score) [24]: -0.664
- glycan array binding signal (z-score) [25]: -0.487
- glycan array binding signal (z-score) [26]: 0.482
- glycan array binding signal (z-score) [27]: -0.529
- glycan array binding signal (z-score) [28]: -0.382
